Source: article PMC517823
These are yes or no findings as the source states them, for the method shown. Some binding calls cover weakened binding; strength is not graded here.

T1: Ffh (UniProt P0AGD7)
T1 sequence: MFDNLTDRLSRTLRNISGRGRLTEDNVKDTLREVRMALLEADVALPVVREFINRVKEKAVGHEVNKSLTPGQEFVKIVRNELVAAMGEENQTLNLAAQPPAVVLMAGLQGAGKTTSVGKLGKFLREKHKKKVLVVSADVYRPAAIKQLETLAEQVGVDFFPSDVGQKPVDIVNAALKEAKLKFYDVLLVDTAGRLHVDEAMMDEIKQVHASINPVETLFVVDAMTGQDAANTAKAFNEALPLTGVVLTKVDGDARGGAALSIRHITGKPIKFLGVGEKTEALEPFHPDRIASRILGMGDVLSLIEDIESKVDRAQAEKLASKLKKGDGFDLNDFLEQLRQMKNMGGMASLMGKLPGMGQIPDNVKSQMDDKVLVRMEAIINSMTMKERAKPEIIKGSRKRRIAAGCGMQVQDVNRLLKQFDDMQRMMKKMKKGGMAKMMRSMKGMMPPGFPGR


Target: T1, Ffh
Test: GTPase inhibition (competition) assay; mutant FtsY varied as inhibitor of the GTPase reaction of Ffh with subsaturating wild-type FtsY; under these conditions Ki equals Kd of the Ffh-FtsY(mt) complex; fit to equation 3; both purified

Binder	binding
wild-type FtsY(47-497) (domain or fragment, UniProt P10121 47-497) ASEQAVEEQPQAHTEAEAETFAADVVEVTEQVAESEKAQPEAEVVAQPEPVVEETPEPVAIEREELPLPEDVNAEAVSPEEWQAEAETVEIVEAAEEEAAKEEITDEELETALAAEAAEEAVMVVPPAEEEQPVEEIAQEQEKPTKEGFFARLKRSLLKTKENLGSGFISLFRGKKIDDDLFEELEEQLLIADVGVETTRKIITNLTEGASRKQLRDAEALYGLLKEEMGEILAKVDEPLNVEGKAPFVILMVGVNGVGKTTTIGKLARQFEQQGKSVMLAAGDTFRAAAVEQLQVWGQRNNIPVIAQHTGADSASVIFDAIQAAKARNIDVLIADTAGRLQNKSHLMEELKKIVRVMKKLDVEAPHEVMLTIDASTGQNAVSQAKLFHEAVGLTGITLTKLDGTAKGGVIFSVADQFGIPIRYIGVGERIEDLRPFKADDFIEALFARED	binds
FtsY A336(141)W (domain or fragment, UniProt P10121 47-497) ASEQAVEEQPQAHTEAEAETFAADVVEVTEQVAESEKAQPEAEVVAQPEPVVEETPEPVAIEREELPLPEDVNAEAVSPEEWQAEAETVEIVEAAEEEAAKEEITDEELETALAAEAAEEAVMVVPPAEEEQPVEEIAQEQEKPTKEGFFARLKRSLLKTKENLGSGFISLFRGKKIDDDLFEELEEQLLIADVGVETTRKIITNLTEGASRKQLRDAEALYGLLKEEMGEILAKVDEPLNVEGKAPFVILMVGVNGVGKTTTIGKLARQFEQQGKSVMLAAGDTFRAAWVEQLQVWGQRNNIPVIAQHTGADSASVIFDAIQAAKARNIDVLIADTAGRLQNKSHLMEELKKIVRVMKKLDVEAPHEVMLTIDASTGQNAVSQAKLFHEAVGLTGITLTKLDGTAKGGVIFSVADQFGIPIRYIGVGERIEDLRPFKADDFIEALFARED	binds
FtsY Asn302(107) to Ala (domain or fragment, UniProt P10121 47-497) ASEQAVEEQPQAHTEAEAETFAADVVEVTEQVAESEKAQPEAEVVAQPEPVVEETPEPVAIEREELPLPEDVNAEAVSPEEWQAEAETVEIVEAAEEEAAKEEITDEELETALAAEAAEEAVMVVPPAEEEQPVEEIAQEQEKPTKEGFFARLKRSLLKTKENLGSGFISLFRGKKIDDDLFEELEEQLLIADVGVETTRKIITNLTEGASRKQLRDAEALYGLLKEEMGEILAKVDEPLNVEGKAPFVILMVGVAGVGKTTTIGKLARQFEQQGKSVMLAAGDTFRAAAVEQLQVWGQRNNIPVIAQHTGADSASVIFDAIQAAKARNIDVLIADTAGRLQNKSHLMEELKKIVRVMKKLDVEAPHEVMLTIDASTGQNAVSQAKLFHEAVGLTGITLTKLDGTAKGGVIFSVADQFGIPIRYIGVGERIEDLRPFKADDFIEALFARED	binds
FtsY Asn302(107) to Trp (domain or fragment, UniProt P10121 47-497) ASEQAVEEQPQAHTEAEAETFAADVVEVTEQVAESEKAQPEAEVVAQPEPVVEETPEPVAIEREELPLPEDVNAEAVSPEEWQAEAETVEIVEAAEEEAAKEEITDEELETALAAEAAEEAVMVVPPAEEEQPVEEIAQEQEKPTKEGFFARLKRSLLKTKENLGSGFISLFRGKKIDDDLFEELEEQLLIADVGVETTRKIITNLTEGASRKQLRDAEALYGLLKEEMGEILAKVDEPLNVEGKAPFVILMVGVWGVGKTTTIGKLARQFEQQGKSVMLAAGDTFRAAAVEQLQVWGQRNNIPVIAQHTGADSASVIFDAIQAAKARNIDVLIADTAGRLQNKSHLMEELKKIVRVMKKLDVEAPHEVMLTIDASTGQNAVSQAKLFHEAVGLTGITLTKLDGTAKGGVIFSVADQFGIPIRYIGVGERIEDLRPFKADDFIEALFARED	binds
FtsY T307(112)A (domain or fragment, UniProt P10121 47-497) ASEQAVEEQPQAHTEAEAETFAADVVEVTEQVAESEKAQPEAEVVAQPEPVVEETPEPVAIEREELPLPEDVNAEAVSPEEWQAEAETVEIVEAAEEEAAKEEITDEELETALAAEAAEEAVMVVPPAEEEQPVEEIAQEQEKPTKEGFFARLKRSLLKTKENLGSGFISLFRGKKIDDDLFEELEEQLLIADVGVETTRKIITNLTEGASRKQLRDAEALYGLLKEEMGEILAKVDEPLNVEGKAPFVILMVGVNGVGKATTIGKLARQFEQQGKSVMLAAGDTFRAAAVEQLQVWGQRNNIPVIAQHTGADSASVIFDAIQAAKARNIDVLIADTAGRLQNKSHLMEELKKIVRVMKKLDVEAPHEVMLTIDASTGQNAVSQAKLFHEAVGLTGITLTKLDGTAKGGVIFSVADQFGIPIRYIGVGERIEDLRPFKADDFIEALFARED	binds weakly
FtsY R333(138)A (domain or fragment, UniProt P10121 47-497) ASEQAVEEQPQAHTEAEAETFAADVVEVTEQVAESEKAQPEAEVVAQPEPVVEETPEPVAIEREELPLPEDVNAEAVSPEEWQAEAETVEIVEAAEEEAAKEEITDEELETALAAEAAEEAVMVVPPAEEEQPVEEIAQEQEKPTKEGFFARLKRSLLKTKENLGSGFISLFRGKKIDDDLFEELEEQLLIADVGVETTRKIITNLTEGASRKQLRDAEALYGLLKEEMGEILAKVDEPLNVEGKAPFVILMVGVNGVGKTTTIGKLARQFEQQGKSVMLAAGDTFAAAAVEQLQVWGQRNNIPVIAQHTGADSASVIFDAIQAAKARNIDVLIADTAGRLQNKSHLMEELKKIVRVMKKLDVEAPHEVMLTIDASTGQNAVSQAKLFHEAVGLTGITLTKLDGTAKGGVIFSVADQFGIPIRYIGVGERIEDLRPFKADDFIEALFARED	binds
